Measured values published in doi:10.1101/2020.03.10.983148.

Tests used:
Assay in all cases: affinity purification with mass spectrometry
[1] = molecular target: T1, full-length Halo-tagged human TET3 (human), O43151; conditions: remark: other sources report otherwise
T1 chain: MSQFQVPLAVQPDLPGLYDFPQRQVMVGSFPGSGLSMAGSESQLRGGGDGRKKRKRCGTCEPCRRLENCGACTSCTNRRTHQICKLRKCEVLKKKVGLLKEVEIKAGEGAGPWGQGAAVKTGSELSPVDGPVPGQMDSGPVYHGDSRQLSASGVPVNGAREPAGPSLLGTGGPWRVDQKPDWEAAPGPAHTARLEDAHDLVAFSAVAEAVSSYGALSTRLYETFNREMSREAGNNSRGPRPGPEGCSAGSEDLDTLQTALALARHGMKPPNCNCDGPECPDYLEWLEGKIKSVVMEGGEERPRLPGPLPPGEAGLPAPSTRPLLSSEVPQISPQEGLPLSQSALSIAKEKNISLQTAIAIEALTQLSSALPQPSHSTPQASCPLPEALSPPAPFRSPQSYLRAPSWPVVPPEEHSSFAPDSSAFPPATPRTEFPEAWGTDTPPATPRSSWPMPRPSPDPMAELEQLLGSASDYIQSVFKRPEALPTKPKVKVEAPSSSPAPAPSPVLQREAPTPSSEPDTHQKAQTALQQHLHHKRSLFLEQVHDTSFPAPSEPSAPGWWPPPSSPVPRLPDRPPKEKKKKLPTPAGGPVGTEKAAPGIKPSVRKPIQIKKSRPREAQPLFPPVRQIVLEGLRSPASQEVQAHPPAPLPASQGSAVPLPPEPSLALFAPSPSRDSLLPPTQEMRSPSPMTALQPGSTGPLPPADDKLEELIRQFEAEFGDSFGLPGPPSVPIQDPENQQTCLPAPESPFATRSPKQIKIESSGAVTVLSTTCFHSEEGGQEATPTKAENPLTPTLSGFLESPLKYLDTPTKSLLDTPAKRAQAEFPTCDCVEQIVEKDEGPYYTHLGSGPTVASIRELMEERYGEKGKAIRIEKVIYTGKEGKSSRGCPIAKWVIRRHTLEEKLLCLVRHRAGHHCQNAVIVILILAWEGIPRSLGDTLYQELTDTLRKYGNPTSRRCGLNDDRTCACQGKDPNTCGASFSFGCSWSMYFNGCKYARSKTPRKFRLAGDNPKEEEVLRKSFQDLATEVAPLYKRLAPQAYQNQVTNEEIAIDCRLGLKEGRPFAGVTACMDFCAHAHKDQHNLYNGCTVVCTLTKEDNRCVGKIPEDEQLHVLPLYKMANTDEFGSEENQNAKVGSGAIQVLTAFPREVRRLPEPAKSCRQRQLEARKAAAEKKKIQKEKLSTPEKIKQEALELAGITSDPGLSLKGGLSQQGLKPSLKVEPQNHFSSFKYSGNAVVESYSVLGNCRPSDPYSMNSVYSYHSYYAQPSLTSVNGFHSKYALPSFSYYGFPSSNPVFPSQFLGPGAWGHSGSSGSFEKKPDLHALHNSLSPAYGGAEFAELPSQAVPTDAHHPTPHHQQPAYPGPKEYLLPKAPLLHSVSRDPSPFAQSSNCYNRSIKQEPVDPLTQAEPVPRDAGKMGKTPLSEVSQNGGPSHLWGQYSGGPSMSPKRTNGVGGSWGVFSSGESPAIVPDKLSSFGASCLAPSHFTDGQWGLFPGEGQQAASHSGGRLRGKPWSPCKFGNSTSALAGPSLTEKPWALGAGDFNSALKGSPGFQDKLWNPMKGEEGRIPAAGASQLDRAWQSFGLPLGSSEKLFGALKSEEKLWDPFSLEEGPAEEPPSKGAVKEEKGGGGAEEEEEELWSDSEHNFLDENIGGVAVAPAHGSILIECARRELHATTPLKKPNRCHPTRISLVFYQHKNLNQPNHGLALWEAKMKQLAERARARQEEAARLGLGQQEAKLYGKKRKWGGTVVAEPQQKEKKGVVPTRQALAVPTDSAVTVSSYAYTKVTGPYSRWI

[2] = molecular target: full-length Halo-tagged human TET1 (human), Q8NFU7; conditions: remark: other sources report otherwise
[3] = molecular target: full-length Halo-tagged human TET2 (human) (UniProt Q6N021)
[4] = molecular target: full-length Halo-tagged human TET3 (human) (UniProt O43151)

B1: SIN3A, endogenous in HEK293T cells, Q96ST3 1-1273 (protein)
chain: MKRRLDDQESPVYAAQQRRIPGSTEAFPHQHRVLAPAPPVYEAVSETMQSATGIQYSVTPSYQVSAMPQSSGSHGPAIAAVHSSHHHPTAVQPHGGQVVQSHAHPAPPVAPVQGQQQFQRLKVEDALSYLDQVKLQFGSQPQVYNDFLDIMKEFKSQSIDTPGVISRVSQLFKGHPDLIMGFNTFLPPGYKIEVQTNDMVNVTTPGQVHQIPTHGIQPQPQPPPQHPSQPSAQSAPAPAQPAPQPPPAKVSKPSQLQAHTPASQQTPPLPPYASPRSPPVQPHTPVTISLGTAPSLQNNQPVEFNHAINYVNKIKNRFQGQPDIYKAFLEILHTYQKEQRNAKEAGGNYTPALTEQEVYAQVARLFKNQEDLLSEFGQFLPDANSSVLLSKTTAEKVDSVRNDHGGTVKKPQLNNKPQRPSQNGCQIRRHPTGTTPPVKKKPKLLNLKDSSMADASKHGGGTESLFFDKVRKALRSAEAYENFLRCLVIFNQEVISRAELVQLVSPFLGKFPELFNWFKNFLGYKESVHLETYPKERATEGIAMEIDYASCKRLGSSYRALPKSYQQPKCTGRTPLCKEVLNDTWVSFPSWSEDSTFVSSKKTQYEEHIYRCEDERFELDVVLETNLATIRVLEAIQKKLSRLSAEEQAKFRLDNTLGGTSEVIHRKALQRIYADKAADIIDGLRKNPSIAVPIVLKRLKMKEEEWREAQRGFNKVWREQNEKYYLKSLDHQGINFKQNDTKVLRSKSLLNEIESIYDERQEQATEENAGVPVGPHLSLAYEDKQILEDAAALIIHHVKRQTGIQKEDKYKIKQIMHHFIPDLLFAQRGDLSDVEEEEEEEMDVDEATGAVKKHNGVGGSPPKSKLLFSNTAAQKLRGMDEVYNLFYVNNNWYIFMRLHQILCLRLLRICSQAERQIEEENREREWEREVLGIKRDKSDSPAIQLRLKEPMDVDVEDYYPAFLDMVRSLLDGNIDSSQYEDSLREMFTIHAYIAFTMDKLIQSIVRQLQHIVSDEICVQVTDLYLAENNNGATGGQLNTQNSRSLLESTYQRKAEQLMSDENCFKLMFIQSQGQVQLTIELLDTEEENSDDPVEAERWSDYVERYMNSDTTSPELREHLAQKPVFLPRNLRRIRKCQRGREQQEKEGKEGNSKKTMENVDSLDKLECRFKLNSYKMVYVIKSEDYMYRRTALLRAHQSHERVSKRLHQRFQAWVDKWTKEHVPREMAAETSKWLMGEGLEGLVPCTTTCDTETLHFVSINKYRVKYGTVFKAP
binding [1]: binds

B2: OGT, endogenous in HEK293T cells, O15294 1-1046 (enzyme)
chain: MASSVGNVADSTEPTKRMLSFQGLAELAHREYQAGDFEAAERHCMQLWRQEPDNTGVLLLLSSIHFQCRRLDRSAHFSTLAIKQNPLLAEAYSNLGNVYKERGQLQEAIEHYRHALRLKPDFIDGYINLAAALVAAGDMEGAVQAYVSALQYNPDLYCVRSDLGNLLKALGRLEEAKACYLKAIETQPNFAVAWSNLGCVFNAQGEIWLAIHHFEKAVTLDPNFLDAYINLGNVLKEARIFDRAVAAYLRALSLSPNHAVVHGNLACVYYEQGLIDLAIDTYRRAIELQPHFPDAYCNLANALKEKGSVAEAEDCYNTALRLCPTHADSLNNLANIKREQGNIEEAVRLYRKALEVFPEFAAAHSNLASVLQQQGKLQEALMHYKEAIRISPTFADAYSNMGNTLKEMQDVQGALQCYTRAIQINPAFADAHSNLASIHKDSGNIPEAIASYRTALKLKPDFPDAYCNLAHCLQIVCDWTDYDERMKKLVSIVADQLEKNRLPSVHPHHSMLYPLSHGFRKAIAERHGNLCLDKINVLHKPPYEHPKDLKLSDGRLRVGYVSSDFGNHPTSHLMQSIPGMHNPDKFEVFCYALSPDDGTNFRVKVMAEANHFIDLSQIPCNGKAADRIHQDGIHILVNMNGYTKGARNELFALRPAPIQAMWLGYPGTSGALFMDYIITDQETSPAEVAEQYSEKLAYMPHTFFIGDHANMFPHLKKKAVIDFKSNGHIYDNRIVLNGIDLKAFLDSLPDVKIVKMKCPDGGDNADSSNTALNMPVIPMNTIAEAVIEMINRGQIQITINGFSISNGLATTQINNKAATGEEVPRTIIVTTRSQYGLPEDAIVYCNFNQLYKIDPSTLQMWANILKRVPNSVLWLLRFPAVGEPNIQQYAQNMGLPQNRIIFSPVAPKEEHVRRGQLADVCLDTPLCNGHTTGMDVLWAGTPMVTMPGETLASRVAASQLTCLGCLELIAKNRQEYEDIAVKLGTDLEYLKKVRGKVWKQRISSPLFNTKQYTMELERLYLQMWEHYAAGNKPDHMIKPVEVTESA
binding [2]: binds

B3: OGT, endogenous in HEK293T cells (enzyme, UniProt O15294 1-1046)
chain: B2 chain
binding [3]: binds | binding [4]: binds

No constants are given. Whether binding was seen depends on the method and setting. In cells and extracts the contact can be indirect. These calls come from enrichment with a bait or labelling near it, and not all partners need be listed. For some of these results: Where a sequence is shown, tags or fusion partners need not be part of it.
